PubChem BioAssay AID504791, Drosophila RNAi Screening Center | 2011
The deposit covers about 23,000 reagents; shown is a random part of those that have a named target and a result. Of all reagents, 199 (0.86%) got an active call. 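Plate-scaled ratios behind the calls are not deposited; printed light signals are raw; many rows marked increased or decreased are still called inactive.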 Unmarked entries are inactive. Reagent sequences are not shown.

- Screen: 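Genes of the fly required for silencing by miRNA, siRNA or endo-siRNA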 (primary screen)
- Cells: Drosophila S2-derived reporter cells
- Knock-down reagent: long dsRNA against Drosophila genes, about 150-250 ng dsRNA per well (siRNA assay); about 80-120 ng (miRNA assay)
- Duration: about 5 days (siRNA assay); about 4 days (miRNA assay)
- Challenge: copper sulfate induction of reporters: 25 µM (siRNA assay); 200 mM stated (miRNA assay), 1-2 days before reading
- Detection: 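Dual luciferase assay: Renilla to firefly signal ratio in each well, scaled to the mean ratio of its plate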
- Reading the numbers: siRNA reporter hit score: higher = 3 marks a strong hit with raised ratio; -3 a strong hit with lowered ratio
- Active means: 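First-pass picks had plate-scaled ratios over 1.5 for the siRNA assay, over 1.6 for the miRNA assay, or under 0.6; two distinct dsRNAs had to score alike on retest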

Gene	dsRNA	siRNA reporter hit score	stable siRNA reporter change	miRNA reporter change	stable assay Renilla, run 1 (luminescence)	stable assay firefly, run 1 (luminescence)
CG7988	DRSC16358				6006	2.83e5
Mst84B (Male-specific transcript 84B)	DRSC12579				6027	3.10e5
CG15614	DRSC06567				5911	3.41e5
RpS2 (Ribosomal protein S2)	DRSC03614	-3			7684	6.86e5
nonA-l (nonA-like)	DRSC17017				7591	4.01e5
Grl58a (Gustatory receptor-like 58a)	DRSC04145				6858	3.67e5
Gyf (Gigyf)	DRSC17202				5095	3.17e5
Ced-12	DRSC02840				6858	5.31e5
Nse1 (Non-SMC element 1)	DRSC02147				15779	1.03e6
Mgat1	DRSC07463				6719	3.61e5
Tfb1 (Transcription factor B1)	DRSC07082	-3			7167	4.36e5
CG18605	DRSC06772				6699	4.46e5
Pten (Phosphatase and tensin homolog)	DRSC03402				8239	4.83e5
CG17304 (retired record)	DRSC15222				5967	2.68e5
CG17304 (retired record)	DRSC23250				5315	3.45e5
Tmx3 (Thioredoxin-related transmembrane protein 3)	DRSC10471				7936	3.98e5
cact (cactus)	DRSC03501				8718	1.44e6
Tsp42Eq (Tetraspanin 42Eq)	DRSC06180				6882	4.72e5
CG5255	DRSC15754				6163	3.03e5
ImpE2 (Ecdysone-inducible gene E2)	DRSC08665				7162	4.66e5
Rrp4	DRSC04434				2.46e5	8.29e5
UQCR-C2 (Ubiquinol-cytochrome c reductase core protein 2)	DRSC10405				6847	3.62e5
UQCR-C2 (Ubiquinol-cytochrome c reductase core protein 2)	DRSC28912			reporter ratio lowered past the hit cutoff		
CG13631	DRSC14632				9499	3.62e5
CG13631	DRSC23168				5759	4.94e5
Rab4	DRSC07524				12383	3.73e5
CG13791 (retired record)	DRSC02295				7560	5.30e5
hob (hobbit)	DRSC08426				6779	3.64e5
CG33506	DRSC05981				7846	5.15e5
yip7 (yippee interacting protein 7)	DRSC11410				6492	6.11e5
mbo (members only)	DRSC16123				10345	3.91e5
Idh3b (Isocitrate dehydrogenase 3b)	DRSC16040				9200	5.21e5
CG6793	DRSC10714				4704	2.89e5
Ppa (Partner of paired)	DRSC04598				5343	3.94e5
CG14971	DRSC08430				6874	3.94e5
AP-1-2beta (Adaptor Protein complex 1/2, beta subunit)	DRSC19336				7736	5.11e5
CG11444	DRSC17784				10965	5.76e5
CG11191	DRSC06056				7283	2.50e5
CG11191	DRSC23224				4112	2.34e5
CG12729	DRSC17884				5776	3.12e5
slou (slouch)	DRSC17058				7064	3.85e5
HP1b (Heterochromatin Protein 1b)	DRSC18418				5140	3.31e5
Mcr (Macroglobulin complement-related)	DRSC03366				10637	7.71e5
CG12209	DRSC06119				5548	3.21e5
hyx (hyrax)	DRSC14462				6559	3.21e5
GramD1B (GRAM domain containing 1B)	DRSC00426				7174	3.68e5
GramD1B (GRAM domain containing 1B)	DRSC00591				1.89e5	1.07e5
GramD1B (GRAM domain containing 1B)	DRSC28705			reporter ratio raised past the hit cutoff		
CG15721	DRSC19688				5638	4.75e5
CG9988	DRSC16587				5520	3.01e5
CG14744	DRSC06480				6451	3.42e5
CG5280	DRSC10498				5663	3.47e5
CG5280	DRSC22835		reporter ratio raised past the hit cutoff		2283	76190
CG14205	DRSC19560				5544	3.81e5
CG14205	DRSC28253			reporter ratio raised past the hit cutoff		
SMSr (Sphingomyelin synthase related)	DRSC10998				7677	4.10e5
SMSr (Sphingomyelin synthase related)	DRSC10999				7202	4.63e5

3 entries from above, set out differently.
Gene,dsRNA,siRNA reporter hit score,stable siRNA reporter change,miRNA reporter change,"stable assay Renilla, run 1 (luminescence)","stable assay firefly, run 1 (luminescence)"
CG18605,DRSC06772,,,,6699,4.46e5
Pten (Phosphatase and tensin homolog),DRSC03402,,,,8239,4.83e5
CG17304 (retired record),DRSC15222,,,,5967,2.68e5
